# Data as given in patent publication US10258633B2, “Treatment of fibrosis using FXR ligands” (Intercept Pharmaceuticals, Inc., priority 2004, dated 2019).
# Some of these results come from one statement about several compounds together. At least one compound was matched to its structure with a doubt left.
# Tested on: hepatic stellate cells (HSC)
# Assay: Quantitative RT-PCR of FXR target genes (SHP, BSEP, NTCP, CYP7A1) in HSC
# Conditions: 6ECDCA 1 μM
smiles,measurement,value
CC[C@H]1[C@@H](O)[C@@H]2[C@H](CC[C@]3(C)[C@@H]([C@H](C)CCC(=O)O)CC[C@@H]23)[C@@]2(C)CC[C@@H](O)C[C@@H]12 [6ECDCA],reduction of CYP7A1 mRNA,50-70%
same,reduction of NTCP mRNA,50-70%
